The values below come from US12109204B2, “Methods for treating muscular dystrophies” (The Regents of the University of California, priority 2018, dated 2024).

Molecules are shown by their SMILES.

The subject of the data set is hSSPN-EGFP myotubes (human sarcospan promoter reporter in C2C12). As to the kind of experiment: hSSPN-EGFP reporter myotube assay (high-content imaging). The data set is classed as cell-based, murine. Particulars: retest at 5.5 μM, robust strictly standardized mean difference. As for the experimental part:
C2C12 immortalized murine myoblasts cultured in growth media consisting of DMEM (Gibco) with 20% Fetal Bovine Serum (Sigma-Aldrich) at 37° C. with 5% CO2 were transfected with the hSSPN-EGFP or hSSPN-Luciferase linearized plasmids using Lipofectamine 3000 Transfection Reagent (Thermo Fisher Scientific). Transfected cells were selected using 800 μg/ml of G418 (Sigma-Aldrich) for 4 weeks to generate stable cell lines expressing reporter protein under control of the human SSPN promoter.
hSSPN-EGFP myoblasts were seeded at 500 cells per well in 50 μl of growth media in 384-well black, clear bottom microplates (Greiner) using a Multidrop 384 (Thermo Fisher Scientific) and incubated for 3 days. Upon reaching confluency, the growth media was replaced with 50 μl of differentiation media consisting of DMEM with 2% horse serum (Sigma-Aldrich) using an EL406 combination washer dispenser (Biotek). At day 2 of differentiation, the media on the cells was aspirated, left with a residual volume of 10 μl, and replaced with 30 μl of fresh differentiation media. 0.5 μl of small molecule in DMSO or DMSO alone (for vehicle and positive control wells) was added to each well using a Biomek Fx (Beckman). To ensure proper mixing of the DMSO, 50 μl of additional differentiation media was added to all wells except the positive control treated wells, which instead received 50 μl of media containing insulin transferrin selenium (ITS, Gibco) to reach a final concentration of 1% ITS. The final concentration of drug in each treated well was 5.5 μM in 0.55% DMSO and 0.55% DMSO for vehicle and positive control treated wells. After 48 hours of incubation, the media was replaced with Fluorobrite DMEM (Gibco) and each plate was imaged using ImageXpress Micro Confocal High Content Imaging System (Molecular Devices). The fluorescent intensity of imaged cells was determined using MetaXpress Analysis software (Molecular Devices). Analysis setting were as follows: top hat (size: 12, filter shape: circle), adaptive threshold (source: top hat, minimum width: 10, maximum width: 800, intensity above local background: 500), filter mask (filter type: minimum area filter, minimum value: 500). […]

For the compound `Nc1nc(=O)c2ncn(COCCO)c2[nH]1` [Acyclovir, 2-amino-9-(2-hydroxyethoxymethyl)-3H-purin-6-one], the “hSSPN-EGFP SSMD*, Plate 1” value is recorded as −0.37 and the “hSSPN-EGFP SSMD*, Plate 2” value amounted to 0.19.
For `O=c1[nH]c(=O)c2nc3ccccc3nc2[nH]1` [Alloxazine, 1H-benzo[g]pteridine-2,4-dione] the same measures were −0.03 and 0.21.
For `COC(=O)N=N/C=C1\C=[N+]([O-])c2ccccc2N1O` [Carbodox, methyl N-[(E)-(1-hydroxy-4-oxidoquinoxalin-4-ium-2-ylidene)methyl]iminocarbamate] the same measures were 0.21 and 0.43.
The matching figures for `CCOC(=O)C1=C(C)NC(C)=C(C(=O)OC)C1c1cccc(Cl)c1Cl` (stereo not drawn) [Felodipine, 5-O-ethyl 3-O-methyl 4-(2,3-dichlorophenyl)-2,6-dimethyl-1,4-dihydropyridine-3,5-dicarboxylate]: 1.75 and 1.56.
Take `O=C1Nc2ccc(I)cc2/C1=C/c1cc(Br)c(O)c(Br)c1` [GW5074, (3Z)-3-[(3,5-dibromo-4-hydroxyphenyl)methylidene]-5-iodo-1H-indol-2-one]: the “hSSPN-EGFP SSMD*, Plate 1” value came to 0.67 and the “hSSPN-EGFP SSMD*, Plate 2” value is listed as 0.78.
For `CC(C)NCC(O)c1ccc(O)c(O)c1` (stereo not drawn) [Isoproterenol, 4-[1-hydroxy-2-(propan-2-ylamino)ethyl]benzene-1,2-diol] the same measures were 0.26 and 0.26.
For `COC(=O)C1=C(C)NC(C)=C(C(=O)OC(C)C)C1c1cccc2nonc12` (stereo not drawn) [Isradipine, 3-O-methyl 5-O-propan-2-yl 4-(2,1,3-benzoxadiazol-4-yl)-2,6-dimethyl-1,4-dihydropyridine-3,5-dicarboxylate] the same measures were 1.79 and 1.50.
The matching figures for `CCOC(=O)C1=C(C)NC(C)=C(C(=O)OCC)C1c1ccccc1/C=C/C(=O)OC(C)(C)C` [Lacidipine, diethyl 2,6-dimethyl-4-[2-[(E)-3-[(2-methylpropan-2-yl)oxy]-3-oxoprop-1-enyl]phenyl]-1,4-dihydropyridine-3,5-dicarboxylate]: 0.69 and 1.02.
Turning to `CCCCN1CCCC1CNC(=O)c1cc(C#N)c2ccccc2c1OC` (stereo not drawn) [Nafadotride, N-[(1-butylpyrrolidin-2-yl)methyl]-4-cyano-1-methoxynaphthalene-2-carboxamide], the “hSSPN-EGFP SSMD*, Plate 1” value is listed as −0.09 and the “hSSPN-EGFP SSMD*, Plate 2” value is given as −0.01.
For the compound `C[C@]12CC[C@H]3[C@@H](CCC4=CC(=O)CC[C@@H]43)[C@@H]1CC[C@@H]2O` [Nandrolone, (8R,9S,10R,13 S,14S,17S)-17-hydroxy-13-methyl-2,6,7,8,9,10,11,12,14,15,16,17-dodecahydro-1H-cyclopenta[a]phenanthren-3-one], the “hSSPN-EGFP SSMD*, Plate 1” value was 0.44 and the “hSSPN-EGFP SSMD*, Plate 2” value is 0.41.
`COC(=O)C1=C(C)NC(C)=C(C(=O)OC)C1c1ccccc1[N+](=O)[O-]` [Nifedipine, dimethyl 2,6-dimethyl-4-(2-nitrophenyl)-1,4-dihydropyridine-3,5-dicarboxylate]: the “hSSPN-EGFP SSMD*, Plate 1” value is given as 0.41 and the “hSSPN-EGFP SSMD*, Plate 2” value is given as 0.22.
As for `COC(=O)C1=C(C#N)NC(C)=C(C(=O)OC(C)C)C1c1cccc([N+](=O)[O-])c1` (stereo not drawn) [Nilvadipine, 3-O-methyl 5-O-propan-2-yl 2-cyano-6-methyl-4-(3-nitrophenyl)-1,4-dihydropyridine-3,5-dicarboxylate], the “hSSPN-EGFP SSMD*, Plate 1” value was determined as 1.08 and the “hSSPN-EGFP SSMD*, Plate 2” value was 0.97.
